Measurements as given in paper PMC8765320, “Identification of a Proteasome-Targeting Arylsulfonamide with Potential for the Treatment of Chagas’ Disease” (Antimicrobial Agents and Chemotherapy, 2022).

Test system: chymotrypsin-like activity of the T. cruzi proteasome
Assay: Proteasome chymotrypsin-like activity luminescence assay
Assay type: biochemical, Trypanosoma cruzi
Settings: luminescent assay
Procedure: Initially, the impact of compound 1 on the chymotrypsin-like proteolytic activity of the proteasome was assessed using a commercially available indirect enzyme-based luminescent assay. In this assay, activity is monitored in proteasome-enriched T. cruzi epimastigote lysates using Suc-LLVY-aminoluciferin as a substrate ([16]). […] Thus, an alternative route to determine the impact of this arylsulfonamide compound on T. cruzi proteasome function was required.
The effect of inhibitors on the chymotrypsin-like activity of the T. cruzi proteasome was assessed by using a luminescence-based assay, as previously described ([21]).

In the case of `COc1ccc(NS(=O)(=O)c2cc(-c3cc(C)n[nH]3)ccc2C)cc1OC` [Compound 1], the “interference with the assay” value was “directly interferes with the assay”.
